Laboratory results: PMC7887808
Results are given in words; binding and its absence hold for the method and conditions named. In cells and extracts the contact can be indirect. Binding can be weak; no strength is given.

Sequences of proteins named here, by UniProt entry; tags and fusion partners are left off. A change or cut given only in a name is not applied to a line headed by its entry.
UniProt Q9BS26: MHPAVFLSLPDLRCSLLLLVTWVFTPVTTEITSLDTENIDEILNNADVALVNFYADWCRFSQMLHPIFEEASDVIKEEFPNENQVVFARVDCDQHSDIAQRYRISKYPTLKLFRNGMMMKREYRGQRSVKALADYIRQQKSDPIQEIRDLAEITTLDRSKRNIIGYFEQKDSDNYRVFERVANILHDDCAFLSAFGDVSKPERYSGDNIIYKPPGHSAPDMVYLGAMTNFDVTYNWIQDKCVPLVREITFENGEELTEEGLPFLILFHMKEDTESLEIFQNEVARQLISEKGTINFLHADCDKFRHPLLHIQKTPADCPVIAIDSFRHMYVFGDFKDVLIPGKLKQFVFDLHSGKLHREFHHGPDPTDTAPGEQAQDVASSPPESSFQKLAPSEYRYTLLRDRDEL
UniProt P53396: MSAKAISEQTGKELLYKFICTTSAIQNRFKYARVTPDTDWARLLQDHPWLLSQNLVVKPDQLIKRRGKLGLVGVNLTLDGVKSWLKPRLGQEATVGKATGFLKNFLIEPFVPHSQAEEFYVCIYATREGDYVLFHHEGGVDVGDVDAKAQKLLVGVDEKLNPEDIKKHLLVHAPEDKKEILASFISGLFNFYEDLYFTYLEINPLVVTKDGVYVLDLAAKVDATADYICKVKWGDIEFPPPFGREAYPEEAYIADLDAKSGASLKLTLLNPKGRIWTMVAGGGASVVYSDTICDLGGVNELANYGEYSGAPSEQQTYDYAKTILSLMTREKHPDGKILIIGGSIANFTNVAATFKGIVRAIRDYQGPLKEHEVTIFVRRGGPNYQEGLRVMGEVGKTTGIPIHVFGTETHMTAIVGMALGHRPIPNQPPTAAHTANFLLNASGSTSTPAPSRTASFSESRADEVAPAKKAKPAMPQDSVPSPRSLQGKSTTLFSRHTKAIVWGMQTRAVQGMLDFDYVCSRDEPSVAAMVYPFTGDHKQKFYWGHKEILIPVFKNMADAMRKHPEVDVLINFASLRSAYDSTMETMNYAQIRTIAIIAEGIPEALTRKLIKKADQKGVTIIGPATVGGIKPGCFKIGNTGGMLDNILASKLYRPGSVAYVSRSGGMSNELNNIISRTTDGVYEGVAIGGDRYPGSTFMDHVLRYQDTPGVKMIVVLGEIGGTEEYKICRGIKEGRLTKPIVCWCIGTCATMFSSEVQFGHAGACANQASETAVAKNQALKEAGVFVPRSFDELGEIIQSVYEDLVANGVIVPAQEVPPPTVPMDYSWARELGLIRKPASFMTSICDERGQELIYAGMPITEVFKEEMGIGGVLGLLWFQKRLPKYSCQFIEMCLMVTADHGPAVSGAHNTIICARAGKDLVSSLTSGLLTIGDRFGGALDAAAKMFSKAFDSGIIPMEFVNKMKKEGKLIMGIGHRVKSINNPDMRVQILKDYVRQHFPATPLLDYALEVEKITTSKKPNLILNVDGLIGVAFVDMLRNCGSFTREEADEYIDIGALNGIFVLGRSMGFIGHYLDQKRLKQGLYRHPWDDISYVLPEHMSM

Biological target: ERp44 Δ1 (mutations in the thioredoxin region, mutant in 30–138) with HA tag (UniProt Q9BS26)
Experiment: co-IP; 293T and CNE2 cells transfected with HA-tagged ERp44 variants; Pierce Co-Immunoprecipitation Kit, 4 °C; western blot with anti-ACLY and anti-HA-tag

binding: binds
Substance: ATP citrate lyase in 293T and CNE2 cells transfected with the ERp44 variants (from UniProt P53396 1-1101) (enzyme)
